Among the data in paper PMC5450235 are binding values, retold here.

Amino acid sequences for entries named in this document (tags omitted). A change or cut given only in a name is not applied to a line headed by its entry. Chains listed by the source or under a name are the forms on record and can include a tag or linker.
UniProt Q9Y3D6: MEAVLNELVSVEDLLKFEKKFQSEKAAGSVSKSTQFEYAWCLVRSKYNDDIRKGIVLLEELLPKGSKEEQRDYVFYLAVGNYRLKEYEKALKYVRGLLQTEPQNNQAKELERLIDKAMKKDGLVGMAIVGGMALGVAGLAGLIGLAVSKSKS
UniProt P51648: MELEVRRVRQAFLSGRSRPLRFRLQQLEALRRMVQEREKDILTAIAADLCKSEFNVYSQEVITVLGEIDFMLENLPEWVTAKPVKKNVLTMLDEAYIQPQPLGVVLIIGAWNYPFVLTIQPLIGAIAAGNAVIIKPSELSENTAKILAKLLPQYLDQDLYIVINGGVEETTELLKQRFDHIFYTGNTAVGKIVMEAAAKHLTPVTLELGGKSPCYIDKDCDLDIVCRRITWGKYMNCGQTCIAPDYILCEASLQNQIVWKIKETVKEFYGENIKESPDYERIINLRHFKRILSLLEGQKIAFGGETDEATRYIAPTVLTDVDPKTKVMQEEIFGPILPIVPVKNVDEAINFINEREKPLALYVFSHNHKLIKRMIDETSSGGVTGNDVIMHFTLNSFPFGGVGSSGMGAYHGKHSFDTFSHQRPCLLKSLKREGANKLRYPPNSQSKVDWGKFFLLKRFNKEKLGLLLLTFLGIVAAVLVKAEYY
GFP-FALDH-PO (not stated (human genes cloned from HepG2 RNA)) (P51648, form named): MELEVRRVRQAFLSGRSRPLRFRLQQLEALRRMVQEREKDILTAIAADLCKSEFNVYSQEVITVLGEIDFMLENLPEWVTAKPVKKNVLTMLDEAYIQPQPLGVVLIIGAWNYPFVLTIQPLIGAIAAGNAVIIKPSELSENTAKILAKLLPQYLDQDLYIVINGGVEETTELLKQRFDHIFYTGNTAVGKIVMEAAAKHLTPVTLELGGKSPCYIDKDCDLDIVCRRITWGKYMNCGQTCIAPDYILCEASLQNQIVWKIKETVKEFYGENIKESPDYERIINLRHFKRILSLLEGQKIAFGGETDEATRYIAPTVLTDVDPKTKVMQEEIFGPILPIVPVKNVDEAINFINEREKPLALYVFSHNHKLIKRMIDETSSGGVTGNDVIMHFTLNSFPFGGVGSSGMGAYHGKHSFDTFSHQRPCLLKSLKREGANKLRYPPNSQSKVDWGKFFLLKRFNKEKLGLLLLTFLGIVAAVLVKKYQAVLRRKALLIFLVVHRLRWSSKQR

No constants are given. Whether binding was seen depends on the method and setting. Binding seen in cells or lysates may run through a third protein. Some binding calls cover weakened binding; strength is not graded here. Tags and fused reporters may be left off the sequences shown.

In one test the target is FLAG-FIS1 (UniProt Q9Y3D6). Nature of the test: co-IP; COS-7 cells co-expressing HA-PEX19 and FLAG-tagged TA proteins; cells treated with 1 mM DSP before lysis; FLAG-antibody-coupled agarose beads, eluted with 50 mM NaOH; immunoblot.
The target in test [1] is GFP-FALDH-PO (not stated (human genes cloned from HepG2 RNA)) (UniProt P51648). Nature of the test: co-IP; COS-7 cells co-expressing HA-PEX19 and GFP fusions; cells treated with 1 mM DSP and quenched before lysis (0.5% Triton X-100, 150 mM NaCl); GFP-Trap beads, 2 h at 4°C; immunoblot. On the technique in general: In western blotting, separated proteins are transferred to a membrane and probed.

Test [2] has as its target GFP-FALDH-ER (not stated (human genes cloned from HepG2 RNA)) (UniProt P51648). Described as above.
Test [3] concerns the target T1, GFP-ACBD5 (not stated (human genes cloned from HepG2 RNA)) (UniProt Q5T8D3).
T1 sequence: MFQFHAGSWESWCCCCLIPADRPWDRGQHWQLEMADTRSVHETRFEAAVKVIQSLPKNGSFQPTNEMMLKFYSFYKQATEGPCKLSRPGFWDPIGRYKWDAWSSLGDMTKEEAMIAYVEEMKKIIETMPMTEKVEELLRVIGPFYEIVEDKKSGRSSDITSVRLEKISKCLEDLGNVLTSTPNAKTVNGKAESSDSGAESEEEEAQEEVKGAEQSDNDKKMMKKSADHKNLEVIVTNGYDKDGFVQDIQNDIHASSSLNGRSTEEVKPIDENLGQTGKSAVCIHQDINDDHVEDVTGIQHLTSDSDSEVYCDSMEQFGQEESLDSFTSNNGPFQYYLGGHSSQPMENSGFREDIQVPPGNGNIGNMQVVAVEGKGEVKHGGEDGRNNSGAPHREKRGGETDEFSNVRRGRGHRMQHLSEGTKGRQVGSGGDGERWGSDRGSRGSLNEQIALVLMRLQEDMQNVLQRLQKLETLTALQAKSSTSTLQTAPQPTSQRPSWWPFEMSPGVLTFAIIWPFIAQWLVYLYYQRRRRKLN
Described as above.

B1: HA-PEX19 (protein, UniProt P40855 1-299)
chain: MAAAEEGCSVGAEADRELEELLESALDDFDKAKPSPAPPSTTTAPDASGPQKRSPGDTAKDALFASQEKFFQELFDSELASQATAEFEKAMKELAEEEPHLVEQFQKLSEAAGRVGSDMTSQQEFTSCLKETLSGLAKNATDLQNSSMSEEELTKAMEGLGMDEGDGEGNILPIMQSIMQNLLSKDVLYPSLKEITEKYPEWLQSHRESLPPEQFEKYQEQHSVMCKICEQFEAETPTDSETTQKARFEMVLDLMQQLQDLGHPPKELAGEMPPGLNFDLDALNLSGPPGASGEQCLIM
For the molecule B1, the binding result is reported as “binds” in the test with FLAG-FIS1, “binds” in test [1], “no binding” in test [2] and “binds” in test [3].
